The source of these data is publication PMC12905490, “Identification and functional characterization of two CXCL17 paralogs from zebrafish” (Biochemical Journal, 2026).

Amino acid sequences for entries named in this document (tags omitted).
UniProt P32121: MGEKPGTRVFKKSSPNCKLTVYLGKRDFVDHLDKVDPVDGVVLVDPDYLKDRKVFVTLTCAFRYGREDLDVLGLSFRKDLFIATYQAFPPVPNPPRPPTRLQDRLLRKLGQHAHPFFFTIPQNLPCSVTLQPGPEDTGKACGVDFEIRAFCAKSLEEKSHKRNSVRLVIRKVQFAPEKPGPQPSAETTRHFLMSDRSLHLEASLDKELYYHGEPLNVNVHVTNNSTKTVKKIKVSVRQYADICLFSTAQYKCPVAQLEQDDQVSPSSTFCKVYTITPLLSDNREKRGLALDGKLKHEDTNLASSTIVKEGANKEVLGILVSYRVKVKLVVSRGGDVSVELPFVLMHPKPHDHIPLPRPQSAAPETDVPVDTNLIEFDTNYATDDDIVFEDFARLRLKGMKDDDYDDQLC

The target in assay [1] is Dr-GPR25-LgBiT (zebrafish (Danio rerio)). Description: split reporter; NanoBiT-based β-arrestin recruitment in living HEK293T cells coexpressing Dr-GPR25-LgBiT and SmBiT-ARRB2; bioluminescence after addition of recombinant zebrafish CXCL17 or CXCL17-like; serum-free DMEM plus 1% BSA. A general note: Recruitment of arrestin is a read-out of receptor activation apart from second messengers.

Assay [2] deals with sLgBiT-Dr-GPR25 (zebrafish (Danio rerio)). Kind of assay: split reporter; NanoBiT-based competition binding: constant 6 × His-SmBiT-Dr-CXCL17-like tracer and varied competitors on living HEK293T cells expressing sLgBiT-Dr-GPR25; serum-free DMEM, 0.1% BSA, 0.01% Tween-20, room temperature ~1 h; only the binder purified.

No constants are given. Whether binding was seen depends on the method and setting. Binding seen in cells or lysates may run through a third protein. Some binding calls cover weakened binding; strength is not graded here. For some assays here: Tags and fused reporters may be left off the sequences shown.

As for SmBiT-ARRB2 (from UniProt P32121 1-409), in assay [1], the binding entry is on record as “binds”.

B1: 6 × His-Dr-[desC3]CXCL17 (domain or fragment, UniProt B0S594 26-106)
chain: RPQEGKSDKSAEVKGHAMPRKCNCQVRGTALDRNCVCEMPHKSRPTLNPEQKNMCLKKKIKTFRKCLQFMGANKKIAKGAS
Regarding B1, the binding entry in assay [2] was “no binding”.
